# In PubChem BioAssay AID504444 (National Center for Advancing Translational Sciences (NCATS), 2011):
# The whole screen tested about 360,000 compounds, of which about 7,500 (2.1%) were called active. This list was built around the results that the source calls inconclusive (neither active nor inactive); the mix of calls is not that of the screen. Calls follow the shape of the dose curve; as a rule, active = well fitted inhibition curve with a large enough effect; inconclusive = small, poorly fitted or top-dose-only effect, or effect the other way; inactive = flat fitted curve, though single readings scatter. Where the call is inconclusive, the potency comes from a doubtful curve fit.
# Test: Nrf2 qHTS screen for inhibitors; also: nearly all actives have a fitted effect of over 60% in size
# Settings: A549 ARE-Fluc reporter, luciferase luminescence, 18-24 h; activity change, negative = inhibition: at 46 µM (top of the series)
# Method in brief: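 A549 ARE_Fluc cells, 5000/well, 5% FBS OPTI-MEM; compounds in dose-response, 18-24 h at 37 °C/5% CO2; CellTiter-Fluor viability read (Ex 405/Em 525), then BugLite luciferase luminescence = Nrf2 activity.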
# % is scaled to controls: 0 for no effect and ±100 for the full control effect; potency is read from the fitted curve at half-maximal effect.
SMILES,"activity change, negative = inhibition",Potency
CCOc1ccc(NC(=O)CN(C)C(=O)c2cn(-c3ccccc3)nc2-c2cccs2)cc1OCC,inactive: -26.5%,
COc1ccc(-c2cc3nc(CCl)[nH]c(=O)c3s2)cc1,,"inconclusive: 29.1 µM [falling, single point]"
Cc1sc(-n2c(C)cc(/C=C3\SC(=S)NC3=O)c2C)c(C#N)c1C,,"inconclusive: 32.6 µM [falling, partial curve, poor fit]"
CCCC1(CCC)NC(=O)N(CC(=O)Nc2ccc(Cl)c(S(=O)(=O)N3CCOCC3)c2)C1=O,,"inconclusive: 25.9 µM [falling, single point]"
CC1CCCC(NC(=O)C2CCC(CNc3c(N4CCCCC4)c(=O)c3=O)CC2)C1C (stereo unspecified),inactive: -3.51%,
O=C(NCCC1CCCCN1S(=O)(=O)c1ccccc1)C(=O)NCc1ccccc1F (stereo unspecified),,"inconclusive: 29.1 µM [falling, partial curve, poor fit]"
COc1ccc(-c2onc(C)c2C)cc1S(=O)(=O)NCC1CCN(Cc2cccc(F)c2)CC1,,"inconclusive: 29.1 µM [falling, single point]"
O=C1[C@@H]2[C@@H]3C[C@@H]([C@H]4ON=C(c5ccc(Cl)cc5Cl)[C@@H]34)[C@@H]2C(=O)N1C1CCCCC1,,"inconclusive: 29.1 µM [falling, single point]"
COc1cc(NC(=O)C2CCCN(S(=O)(=O)c3cccc4nsnc34)C2)cc(OC)c1 (stereo unspecified),,"inconclusive: 14.6 µM [falling, partial curve]"
Cc1nc(N2CCN(c3ccccn3)CC2)c2c(C)c(C(=O)Nc3c(C)cc(Br)cc3C)sc2n1,inactive: -29.7%,
COC1=C/C(=C/c2c(O)c(C#N)c3ccccn23)C=CC1=O,inactive: 11.3%,
COc1ccc(O)c(C2Nc3ccccc3C(=O)N2Cc2ccccc2)c1 (stereo unspecified),inactive: 10.9%,
Cc1cccc2nc(-c3cccnc3)c(NCCC(C)C)n12,inactive: 0.746%,
COc1ccc(CCNc2nc3c(-c4cccc(C)c4)nnn3c3ccccc23)cc1OC,inactive: 2.2%,
Cc1ccc(-n2c(=O)c3c(c4cc(C)ccc4n3C)n(CC(=O)NCc3ccccc3)c2=O)cc1,,"inconclusive: 16.4 µM [activator, partial curve]"
NS(=O)(=O)c1ccc(-c2ccc(/C=C3\SC(=S)N(C4CCS(=O)(=O)C4)C3=O)o2)cc1 (stereo unspecified),,"inconclusive: 29.1 µM [falling, partial curve, poor fit]"
C=CCc1cc(C=Nc2ccc(N3CCOCC3)cc2)cc(OCC)c1O,,"inconclusive: 1.84 µM [activator, full curve, poor fit]"
COc1ccccc1NC(=O)CSc1nc(-c2ccccc2F)nc2cc(=O)[nH]n12,,"inconclusive: 6.51 µM [activator, single point]"
COc1cccc(/C=N/Nc2nc3ccccc3[nH]2)c1OC,inactive: 6.21%,
C[C@H](CO)N1C[C@H](C)[C@@H](CN(C)S(C)(=O)=O)Oc2ccc(NS(=O)(=O)c3ccccc3)cc2C1=O,inactive: 9.16%,
Cc1ccc2occ(CC(=O)N(Cc3ccc(C(C)C)cc3)C3CCS(=O)(=O)C3)c2c1 (stereo unspecified),,"inconclusive: 9.2 µM [falling, partial curve]"
Cc1nc(-n2[nH]c3c(c2=O)CCCC3)[nH]c(=O)c1Cc1ccccc1,,"inconclusive: 4.11 µM [falling, partial curve, poor fit]"

SMILES,"activity change, negative = inhibition",Potency
CCOC(=O)c1ccc(-n2[nH]c(-c3ccccc3)cc2=O)cc1,,"inconclusive: 18.4 µM [falling, single point]"
CC(C)(C)c1ccc(C(=O)N2CCC(c3nc4ccccc4o3)CC2)cc1,,"inconclusive: 29.1 µM [falling, single point]"
O=C(Nc1ccc(Cl)c(C(F)(F)F)c1)C1CCN(S(=O)(=O)c2cccc3nonc23)CC1,,"inconclusive: 29.1 µM [falling, single point]"
Cc1cccc(C(=O)NCCCNC(=O)c2cccnc2)c1,,"inconclusive: 13 µM [falling, partial curve, poor fit]"
CC(C)S(=O)(=O)c1csc(NC(=O)Nc2cc(Cl)ccc2Cl)c1Cl,,active: 18.4 µM
COC(=O)c1ccc(COC(=O)C(NC(=O)Cc2ccccc2)C(C)C)cc1 (stereo unspecified),inactive: 2.54%,
Cc1cccn2c(=O)c(C(=O)NCCc3ccc(S(N)(=O)=O)cc3)c(O)nc12,inactive: 7.15%,
CCOc1ccc(C(=O)Nc2nnn(CC)n2)cc1,,"inconclusive: 20.6 µM [activator, single point]"
CCCCn1c(NCc2ccc(N(C)C)cc2)nc2ccccc21,,inactive
CC(NC(=O)COC(=O)CSCc1ccccc1)c1ccccc1 (stereo unspecified),inactive: 2.61%,
COCCCNc1nc2c(c(=O)n(Cc3ccc(Cl)cc3)c(=O)n2C)n1C,,"inconclusive: 11.6 µM [falling, partial curve]"
COc1ccc(CNC(=O)COCc2cc(-c3cccs3)on2)cc1,inactive: 12.3%,
CC1=C(C#N)C(=O)NC(=O)/C1=C\c1ccc(-c2ccc(C)cc2[N+](=O)[O-])o1,inactive: 2.88%,
O=C(OCn1nnc2ccccc2c1=O)c1ccc2ncsc2c1,,"inconclusive: 29.1 µM [activator, single point]"
O=C(Nc1cccc(Br)c1)c1cc2ccccc2o1,,"inconclusive: 10.3 µM [activator, partial curve]"
CSc1ccc(CSCC(=O)N2CCN(S(=O)(=O)c3ccc(C)cc3C)CC2)cc1,,"inconclusive: 25.9 µM [falling, single point]"
COc1ccc(S(=O)(=O)N(CC(=O)Nc2cccnc2)c2ccc(Cl)cc2)cc1,,"inconclusive: 29.1 µM [falling, single point]"
CCOc1ccccc1CNC(=O)c1cccn1-c1nnc(N2CCCC2)s1,,"inconclusive: 1.46 µM [falling, partial curve, poor fit]"
CCOC(=O)c1c(-c2ccc(C)o2)csc1NC(=O)CN1CCOCC1,inactive: 1.91%,
Cc1cccc(N2CCN(C(=O)Cn3nc(Cc4cccnc4)c4ccccc4c3=O)CC2)c1C,,active: 16.4 µM
COc1ccc(C2NC(=S)NC3=C2CCc2cc(OC)ccc23)cc1 (stereo unspecified),,"inconclusive: 25.9 µM [falling, partial curve, poor fit]"
CC1(C)NC(=O)N(CCC(=O)Nc2cc(C(F)(F)F)ccc2Cl)C1=O,,"inconclusive: 6.51 µM [falling, partial curve, poor fit]"

# Shown as tab-separated lines: 3 of the compounds above.
SMILES	activity change, negative = inhibition	Potency
CC(C)(C)c1ccc(C(=O)N2CCC(c3nc4ccccc4o3)CC2)cc1		inconclusive: 29.1 µM [falling, single point]
O=C(OCn1nnc2ccccc2c1=O)c1ccc2ncsc2c1		inconclusive: 29.1 µM [activator, single point]
CCOc1ccccc1CNC(=O)c1cccn1-c1nnc(N2CCCC2)s1		inconclusive: 1.46 µM [falling, partial curve, poor fit]

# Next structures.

SMILES,"activity change, negative = inhibition",Potency
Nc1ccccc1SC1CC(=O)N(c2ccc3c(c2)OCO3)C1=O (stereo unspecified),,"inconclusive: 18.4 µM [activator, single point]"
CC(CCc1ccc(O)cc1)NCCc1ccc(O)c(O)c1 (stereo unspecified),inactive: 9.6%,
CC(C)C1C(C#N)=C(N)Oc2n[nH]c(-c3ccc4ccccc4c3)c21 (stereo unspecified),,"inconclusive: 29.1 µM [falling, single point]"
O=C(c1cccc(Cl)c1)C1CCCN(Cc2ccc(N3CCNC3=O)cc2)C1 (stereo unspecified),,"inconclusive: 10.3 µM [activator, single point]"
CCCc1cc(C(=O)N2CCN(c3ccc(C(F)(F)F)cn3)CC2)sc1C,,"inconclusive: 29.1 µM [falling, single point]"
COc1ccccc1Nc1nn2c(=O)c3ccc(C(=O)NCCC4=CCCCC4)cc3nc2s1,,"inconclusive: 32.6 µM [falling, partial curve, poor fit]"
O=C(Oc1cccc(/C=N/NC(=O)c2ccccn2)c1)c1ccc([N+](=O)[O-])cc1,,"inconclusive: 29.1 µM [activator, single point]"
CCOc1ccccc1NC(=O)CN(c1ccc(Cl)cc1)S(C)(=O)=O,inactive: -11.7%,
c1ccc(-c2csc(NNC3=NCCCCC3)n2)cc1,,"inconclusive: 1.84 µM [activator, full curve, poor fit]"
COc1cc(-c2cc(C(=O)N(C)Cc3ccccc3)c3ccccc3n2)cc(OC)c1OC,,"inconclusive: 16.4 µM [falling, single point]"
CC(NC(=O)CSc1ccc(S(=O)(=O)N2CCOCC2)cn1)c1ccc(Cl)cc1Cl (stereo unspecified),,"inconclusive: 29.1 µM [falling, single point]"
O=C(Cc1ccc(-n2c(=S)[nH]c3ccccc3c2=O)cc1)N1CCN(c2ccccc2)CC1,,"inconclusive: 20.6 µM [falling, single point]"
O=C(NCc1ccccc1F)C1CCN(c2nn3cc(-c4ccc(F)cc4)nc3s2)CC1,,"inconclusive: 29.1 µM [activator, single point]"
COc1ccc(N2CCN(C(=O)Cn3nnc(-c4cccs4)n3)CC2)cc1,inactive: 9.66%,
CN1c2ccc(Cl)cc2-c2nc(SCC(=O)NCc3ccccc3)ncc2S1(=O)=O,,"inconclusive: 20.6 µM [falling, partial curve, poor fit]"
c1ccc(-c2nc3ccccc3o2)nc1,,"inconclusive: 10.3 µM [activator, partial curve]"
C#CCOCCOCCOCCNc1nc(N2CCN(C(=O)CCCCCCCCCCNC(=O)Cn3cc(CCCCCN)nn3)CC2)nc(N2CCN(C(=O)CCCCCCCCCCNC(=O)Cn3cc(C[C@@H](C)O)nn3)CC2)n1,inactive: 3.64%,
CC[n+]1c(C)sc2c(C)cc(C)cc21,,"inconclusive: 36.6 µM [falling, partial curve, poor fit]"
COc1ccc(-c2n[nH]c(=S)n2-c2ccc(C)cc2)cc1,inactive: -14.8%,
Cc1ccc(CCC(=O)Nc2ccc(C)c(C)c2)o1,,"inconclusive: 2.31 µM [activator, partial curve, poor fit]"
CN(C(=O)CSc1ncnc2sc3c(c12)CCCC3)C1CCS(=O)(=O)C1 (stereo unspecified),,"inconclusive: 25.9 µM [falling, single point]"
COc1ccc(/C(C)=N/NS(=O)(=O)c2cc(C)ccc2C)c(OC)c1,,"inconclusive: 0.164 µM [falling, full curve]"
